Results from publication PMC12431657, “Discovery and mechanistic insights of dibenzoylmethane as a broad spectrum inhibitor of coronavirus” (PLOS Pathogens, 2025).
Where two headings read alike, the source gives them in different places. Hit rate of the full screen: of about 3,300 compounds, about 95 (3%) showed an effect of 50% or more. The list shows a part of the results.

System: HCoV-229E
Set-up: species or system Huh-7; HTS, protection from HCoV-229E induced cell death, luminescent cell viability (CellCounting-Lite 2.0), inhibition rate
Settings: 24 h post infection, 1 h compound pre-incubation, 10 µM, inhibitor

SMILES	229E Inhibition rate [%]	229E Inhibition rate (229E Inhibition rate, 24 h) [%]
CS/C=C/C(=O)NCCO[C@@H]1O[C@H](CO)[C@@H](O)[C@H](O)[C@H]1O [Entadamide-A-β-D-glucopyranoside]	10.7	
COc1cc([C@@H]2OC[C@@H]3[C@H]2CO[C@H]3c2cc(OC)c(O)c(OC)c2)cc(OC)c1O [(-)-Syringaresinol]	16.7	
C[C@@H]1CC[C@@]2(OC1)O[C@H]1C[C@H]3[C@@H]4CC=C5C[C@@H](O)C[C@@H](O[C@@H]6O[C@H](C)[C@H](O)[C@H](O[C@@H]7OC[C@@H](O)[C@H](O)[C@H]7O)[C@H]6O[C@@H]6O[C@@H](C)[C@H](O)[C@@H](O)[C@H]6O)[C@]5(C)[C@H]4CC[C@]3(C)[C@H]1[C@@H]2C [Ophiopogonin D']		6.6
O=c1ccc2cc(O)c(O)cc2o1 [Esculetin]	35.1	
C[C@H](CCC(=O)O)[C@H]1CC[C@H]2[C@@H]3[C@H](O)CC4=CC(=O)CC[C@]4(C)[C@H]3CC[C@]12C [3-Oxo-7-hydroxychol-4-enoic acid]	11.3	
COc1ccc(-c2cc(=O)c3c(O)cc(O[C@@H]4O[C@H](CO)[C@@H](O)[C@H](O)[C@H]4O)cc3o2)cc1 [Tilianin]	31.2	
CC1CNC(=O)NC1=O (stereo not shown) [5,6-Dihydro-5-methyluracil]	48.7	
Cc1cc(O)c2c(c1)C(=O)c1cccc(O)c1C2=O [Chrysophanol]	29.5	
O=c1cc(-c2ccccc2)c2cc(O)c(O)cc2o1 [Nordalbergin]	17.6	
O=C(O)CNC(=O)/C=C/c1ccccc1 [Cinnamoylglycine]	41.7	
COc1cc(O[C@@H]2O[C@H](CO[C@@H]3O[C@H](CO)[C@@H](O)[C@H](O)[C@H]3O)[C@@H](O)[C@H](O)[C@H]2O)c2c(O)c3c(=O)cc(C)oc3cc2c1 [Rubrofusarin gentiobioside]	20.7	
Cn1cnc2[nH]c(=O)[nH]c(=O)c21 [7-Methylxanthine]	7.8	
c1ccc2[nH]ccc2c1 [Indole]	7.7	
Oc1ccc2c(c1)OC[C@H]1c3cc4c(cc3O[C@@H]21)OCO4 [Maackiain]		20.8
N[C@@H](Cc1c[nH]c2ccc(O)cc12)C(=O)O [L-5-Hydroxytryptophan]		38.4
OCC1=C[C@@H](O)[C@]2(O[C@@H]3O[C@H](CO)[C@@H](O)[C@H](O)[C@H]3O)C=CO[C@@H](O[C@@H]3O[C@H](CO)[C@@H](O)[C@H](O)[C@H]3O)[C@H]12 [Melittoside]	12.4	

An excerpt from above in order of heavy-atom count, rising.
SMILES	229E Inhibition rate [%]	229E Inhibition rate (229E Inhibition rate, 24 h) [%]
N[C@@H](Cc1c[nH]c2ccc(O)cc12)C(=O)O [L-5-Hydroxytryptophan]		38.4
O=c1cc(-c2ccccc2)c2cc(O)c(O)cc2o1 [Nordalbergin]	17.6	
OCC1=C[C@@H](O)[C@]2(O[C@@H]3O[C@H](CO)[C@@H](O)[C@H](O)[C@H]3O)C=CO[C@@H](O[C@@H]3O[C@H](CO)[C@@H](O)[C@H](O)[C@H]3O)[C@H]12 [Melittoside]	12.4	
